Data taken from the supplement of paper PMC12823440, “Inhibitors supercharge kinase turnover through native proteolytic circuits” (Nature, 2025).
Where a name gives a salt, the structure may show the parent alone. Some of the results follow. Hit calls seldom repeat between salt and free forms of one compound.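 In K562 cells expressing nanoluciferase-fused kinases, luminescence was recorded at 4 h intervals between 2 and 18 h, normalized as percent of control with DMSO at 100% and a positive control at 0%. A significant (2 sigma) signal drop marks a time point as decreased. The authors' rule for a hit is not shown and takes in more than the number of time points.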

The chains behind the UniProt entries cited, without tags or fusion partners. Where a name states a change or a piece, a line headed by the entry shows the natural chain unless it says otherwise.
UniProt P00519, whole entry: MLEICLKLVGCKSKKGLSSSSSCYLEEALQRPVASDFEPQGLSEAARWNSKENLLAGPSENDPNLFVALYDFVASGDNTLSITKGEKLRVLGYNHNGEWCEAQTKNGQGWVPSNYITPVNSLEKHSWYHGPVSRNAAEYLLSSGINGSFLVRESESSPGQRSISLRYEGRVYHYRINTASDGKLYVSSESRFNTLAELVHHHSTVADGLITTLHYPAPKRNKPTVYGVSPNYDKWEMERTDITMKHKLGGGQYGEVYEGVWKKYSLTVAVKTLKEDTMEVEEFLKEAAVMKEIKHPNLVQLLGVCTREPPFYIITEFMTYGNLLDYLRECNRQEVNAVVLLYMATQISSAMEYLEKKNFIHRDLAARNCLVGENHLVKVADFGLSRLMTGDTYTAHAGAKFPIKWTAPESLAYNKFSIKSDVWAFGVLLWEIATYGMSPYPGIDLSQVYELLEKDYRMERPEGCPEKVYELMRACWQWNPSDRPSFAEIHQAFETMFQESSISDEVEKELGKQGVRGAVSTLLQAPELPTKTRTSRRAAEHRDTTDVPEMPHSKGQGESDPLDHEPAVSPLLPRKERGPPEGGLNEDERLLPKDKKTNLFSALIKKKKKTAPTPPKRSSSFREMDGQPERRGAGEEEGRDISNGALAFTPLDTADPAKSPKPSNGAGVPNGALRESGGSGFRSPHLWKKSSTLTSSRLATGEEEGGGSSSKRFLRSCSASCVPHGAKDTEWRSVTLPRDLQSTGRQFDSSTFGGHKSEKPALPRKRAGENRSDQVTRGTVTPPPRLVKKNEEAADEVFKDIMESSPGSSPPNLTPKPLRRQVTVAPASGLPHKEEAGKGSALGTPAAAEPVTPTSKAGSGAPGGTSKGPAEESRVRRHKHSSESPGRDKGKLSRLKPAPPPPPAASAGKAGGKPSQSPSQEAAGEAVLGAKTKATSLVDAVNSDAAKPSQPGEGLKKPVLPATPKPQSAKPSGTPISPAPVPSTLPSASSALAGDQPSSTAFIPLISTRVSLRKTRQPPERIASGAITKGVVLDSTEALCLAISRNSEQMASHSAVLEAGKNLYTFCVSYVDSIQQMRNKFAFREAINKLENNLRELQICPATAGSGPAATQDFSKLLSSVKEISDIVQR
UniProt P31749: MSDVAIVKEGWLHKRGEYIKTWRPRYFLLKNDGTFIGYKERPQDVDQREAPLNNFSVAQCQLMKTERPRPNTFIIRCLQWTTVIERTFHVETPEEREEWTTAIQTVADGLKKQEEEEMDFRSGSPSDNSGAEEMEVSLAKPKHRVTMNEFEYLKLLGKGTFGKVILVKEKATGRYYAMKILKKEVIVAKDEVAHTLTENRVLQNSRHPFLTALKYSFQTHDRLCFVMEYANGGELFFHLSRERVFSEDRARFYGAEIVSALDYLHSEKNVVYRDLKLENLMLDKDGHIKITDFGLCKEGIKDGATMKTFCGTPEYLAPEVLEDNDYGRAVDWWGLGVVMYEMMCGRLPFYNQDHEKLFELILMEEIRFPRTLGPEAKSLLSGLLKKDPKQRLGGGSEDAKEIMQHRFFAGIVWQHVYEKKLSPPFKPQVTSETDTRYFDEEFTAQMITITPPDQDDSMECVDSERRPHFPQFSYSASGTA
UniProt P10398: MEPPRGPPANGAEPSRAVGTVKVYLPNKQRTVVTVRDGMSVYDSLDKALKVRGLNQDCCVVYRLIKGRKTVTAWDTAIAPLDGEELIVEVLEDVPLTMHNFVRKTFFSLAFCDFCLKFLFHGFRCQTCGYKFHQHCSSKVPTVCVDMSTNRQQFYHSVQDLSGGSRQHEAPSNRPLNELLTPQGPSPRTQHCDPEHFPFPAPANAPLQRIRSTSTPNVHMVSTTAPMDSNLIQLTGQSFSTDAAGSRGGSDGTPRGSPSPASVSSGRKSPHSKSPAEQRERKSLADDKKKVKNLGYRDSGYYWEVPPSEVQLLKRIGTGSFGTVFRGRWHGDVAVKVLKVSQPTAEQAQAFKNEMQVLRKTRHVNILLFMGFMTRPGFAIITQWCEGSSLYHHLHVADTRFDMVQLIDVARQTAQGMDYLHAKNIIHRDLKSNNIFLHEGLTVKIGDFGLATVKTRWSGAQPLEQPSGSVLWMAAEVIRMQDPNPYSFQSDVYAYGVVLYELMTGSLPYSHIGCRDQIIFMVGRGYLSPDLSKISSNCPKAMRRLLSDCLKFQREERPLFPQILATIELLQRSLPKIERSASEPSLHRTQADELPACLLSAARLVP
UniProt O14965: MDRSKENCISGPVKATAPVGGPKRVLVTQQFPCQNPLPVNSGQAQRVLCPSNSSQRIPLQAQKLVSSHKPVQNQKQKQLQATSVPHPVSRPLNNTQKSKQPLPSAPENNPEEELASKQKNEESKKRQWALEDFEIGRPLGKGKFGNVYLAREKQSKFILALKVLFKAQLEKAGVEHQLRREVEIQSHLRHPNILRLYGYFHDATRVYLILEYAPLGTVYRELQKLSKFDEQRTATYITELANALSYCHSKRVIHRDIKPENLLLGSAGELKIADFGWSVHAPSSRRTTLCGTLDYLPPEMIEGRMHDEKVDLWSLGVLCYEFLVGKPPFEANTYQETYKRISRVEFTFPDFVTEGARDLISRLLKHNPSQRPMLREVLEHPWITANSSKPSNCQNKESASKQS
UniProt Q96GD4, whole entry: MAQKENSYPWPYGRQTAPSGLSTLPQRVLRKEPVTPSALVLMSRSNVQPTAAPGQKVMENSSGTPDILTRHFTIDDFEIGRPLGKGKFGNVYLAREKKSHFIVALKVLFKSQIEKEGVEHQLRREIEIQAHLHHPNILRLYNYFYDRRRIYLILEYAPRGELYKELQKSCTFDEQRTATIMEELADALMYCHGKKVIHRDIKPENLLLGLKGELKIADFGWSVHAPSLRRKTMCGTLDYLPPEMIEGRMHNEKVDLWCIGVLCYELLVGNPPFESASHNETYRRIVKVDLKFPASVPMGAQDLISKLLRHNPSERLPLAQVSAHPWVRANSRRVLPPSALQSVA
UniProt Q9UQB9: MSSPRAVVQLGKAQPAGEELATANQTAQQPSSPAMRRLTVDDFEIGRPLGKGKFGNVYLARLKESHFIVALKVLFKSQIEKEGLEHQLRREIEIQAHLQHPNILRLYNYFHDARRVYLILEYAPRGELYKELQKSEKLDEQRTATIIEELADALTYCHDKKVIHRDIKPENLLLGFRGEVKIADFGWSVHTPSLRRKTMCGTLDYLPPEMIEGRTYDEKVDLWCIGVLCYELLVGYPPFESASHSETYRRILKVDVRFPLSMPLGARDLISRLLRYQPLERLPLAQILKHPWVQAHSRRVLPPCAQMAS
UniProt P51451: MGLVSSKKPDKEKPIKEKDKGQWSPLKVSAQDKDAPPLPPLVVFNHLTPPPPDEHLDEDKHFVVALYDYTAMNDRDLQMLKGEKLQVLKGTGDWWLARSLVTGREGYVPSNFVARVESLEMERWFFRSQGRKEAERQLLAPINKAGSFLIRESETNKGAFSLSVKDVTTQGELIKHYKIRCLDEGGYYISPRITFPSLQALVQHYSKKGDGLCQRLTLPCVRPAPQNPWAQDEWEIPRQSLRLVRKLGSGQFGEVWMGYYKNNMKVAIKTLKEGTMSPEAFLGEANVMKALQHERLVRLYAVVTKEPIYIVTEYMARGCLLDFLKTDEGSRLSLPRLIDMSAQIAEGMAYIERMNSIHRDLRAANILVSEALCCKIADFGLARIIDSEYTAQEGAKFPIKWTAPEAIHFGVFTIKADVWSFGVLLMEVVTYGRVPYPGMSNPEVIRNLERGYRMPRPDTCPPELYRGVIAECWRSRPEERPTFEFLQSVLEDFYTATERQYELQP
UniProt P51813: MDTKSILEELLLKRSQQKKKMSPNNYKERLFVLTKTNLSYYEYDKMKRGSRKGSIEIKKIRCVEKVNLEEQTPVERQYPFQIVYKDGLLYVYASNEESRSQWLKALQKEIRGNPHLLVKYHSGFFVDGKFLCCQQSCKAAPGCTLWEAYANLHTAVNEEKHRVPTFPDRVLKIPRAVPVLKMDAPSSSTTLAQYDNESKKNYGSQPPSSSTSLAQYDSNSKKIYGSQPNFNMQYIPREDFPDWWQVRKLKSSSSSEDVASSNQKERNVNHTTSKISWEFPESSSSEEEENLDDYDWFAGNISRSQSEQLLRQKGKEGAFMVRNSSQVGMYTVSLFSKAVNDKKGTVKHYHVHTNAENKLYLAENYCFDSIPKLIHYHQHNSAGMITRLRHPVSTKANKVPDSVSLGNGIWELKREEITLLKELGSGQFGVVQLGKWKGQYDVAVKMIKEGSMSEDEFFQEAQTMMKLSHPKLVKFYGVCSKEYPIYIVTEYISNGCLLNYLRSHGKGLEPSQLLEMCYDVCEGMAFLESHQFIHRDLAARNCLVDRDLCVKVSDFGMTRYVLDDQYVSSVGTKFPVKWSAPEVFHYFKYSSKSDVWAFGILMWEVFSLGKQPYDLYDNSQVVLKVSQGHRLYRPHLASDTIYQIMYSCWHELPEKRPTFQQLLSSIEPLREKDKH
UniProt P15056, whole entry, looked up: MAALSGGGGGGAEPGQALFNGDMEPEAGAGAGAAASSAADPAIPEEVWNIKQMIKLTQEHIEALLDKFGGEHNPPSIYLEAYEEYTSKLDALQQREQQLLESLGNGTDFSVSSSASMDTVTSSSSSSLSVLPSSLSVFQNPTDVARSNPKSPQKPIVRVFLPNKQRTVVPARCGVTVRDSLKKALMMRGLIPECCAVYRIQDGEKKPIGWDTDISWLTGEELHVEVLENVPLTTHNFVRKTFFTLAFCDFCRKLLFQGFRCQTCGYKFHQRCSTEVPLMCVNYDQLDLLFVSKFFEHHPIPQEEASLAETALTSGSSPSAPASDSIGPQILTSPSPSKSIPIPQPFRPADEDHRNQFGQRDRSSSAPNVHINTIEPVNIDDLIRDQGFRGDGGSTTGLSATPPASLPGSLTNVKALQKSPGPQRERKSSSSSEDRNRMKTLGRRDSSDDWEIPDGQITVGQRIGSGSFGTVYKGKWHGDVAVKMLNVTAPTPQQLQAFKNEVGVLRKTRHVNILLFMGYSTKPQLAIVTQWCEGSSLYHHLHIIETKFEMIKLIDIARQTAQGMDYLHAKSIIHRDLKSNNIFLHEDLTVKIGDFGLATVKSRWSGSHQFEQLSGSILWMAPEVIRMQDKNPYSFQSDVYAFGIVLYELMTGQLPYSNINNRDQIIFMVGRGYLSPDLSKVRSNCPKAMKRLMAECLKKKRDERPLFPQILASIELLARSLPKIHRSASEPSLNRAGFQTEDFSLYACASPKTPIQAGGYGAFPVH

Assays:
Experiment in all cases: kinase-Nluc reporter destabilization hit call (1 = scored as downregulated) (binary); higher = compound decreases kinase abundance
Settings in all cases: K562; 2-18 h
ABL1 = ABL1 (UniProt P00519)
AKT1 = AKT1 (UniProt P31749)
ALK = ALK (UniProt Q9UM73)
ARAF = ARAF (UniProt P10398)
AURKA = AURKA (UniProt O14965)
AURKB = AURKB (UniProt Q96GD4)
AURKC = AURKC (UniProt Q9UQB9)
BLK = BLK (UniProt P51451)
BMX = BMX (UniProt P51813)
BRAF = BRAF (UniProt P15056)

Measured: kinase-Nluc reporter destabilization hit call

C[C@H](CC[C@@H](O)C(C)(C)O)[C@H]1CC[C@@]2(C)[C@@H]3CC=C4[C@@H](CC[C@H](O)C4(C)C)[C@]3(C)[C@H](O)C[C@]12C [Mogrol] (10 µM)
inactive: ABL1 = 0 | AKT1 = 0 | ALK 0 | ARAF 0 | AURKA 0 | AURKB 0 | AURKC 0 | BLK 0 | BMX 0 | BRAF 0

NC(=O)c1cccc2c(N[C@H](CN3CCC3)c3ccc(Cl)c(C(F)(F)F)c3)ncnc12 (10 µM)
inactive: ABL1 = 0 | AKT1 = 0 | ALK 0 | ARAF 0 | AURKA 0 | AURKB 0 | AURKC 0 | BLK 0 | BMX 0 | BRAF 0

C[C@@H]1CN(CC(=O)Nc2ccc3c(c2)Cc2cccc(-c4cc(=O)cc(N5CCOCC5)o4)c2S3)C[C@H](C)O1 (2.5 µM)
inactive: ABL1 = 0 | AKT1 = 0 | ALK 0 | ARAF 0 | AURKA 0 | AURKB 0 | AURKC 0 | BLK 0 | BMX 0 | BRAF 0

CCN1C(C)(C)CC(Oc2ccc(C(=O)Nc3ccc(NC(=O)Nc4cc(C(C)(C)C)on4)cc3)nc2)CC1(C)C (10 µM)
inactive: ABL1 = 0 | AKT1 = 0 | ALK 0 | ARAF 0 | AURKA 0 | AURKB 0 | AURKC 0 | BLK 0 | BMX 0 | BRAF 0

CNS(=O)(=O)Nc1nccc(Cc2c(C)c3ccc(Oc4ncccn4)cc3oc2=O)c1F (10 µM)
inactive: ABL1 = 0 | AKT1 = 0 | ALK 0 | ARAF 0 | AURKA 0 | AURKB 0 | AURKC 0 | BLK 0 | BMX 0 | BRAF 0

2 neighbouring compounds out of the list so far:
C[C@H](CC[C@@H](O)C(C)(C)O)[C@H]1CC[C@@]2(C)[C@@H]3CC=C4[C@@H](CC[C@H](O)C4(C)C)[C@]3(C)[C@H](O)C[C@]12C [Mogrol] (10 µM)
inactive: ABL1 = 0 | AKT1 = 0 | ALK 0 | ARAF 0 | AURKA 0 | AURKB 0 | AURKC 0 | BLK 0 | BMX 0 | BRAF 0

NC(=O)c1cccc2c(N[C@H](CN3CCC3)c3ccc(Cl)c(C(F)(F)F)c3)ncnc12 (10 µM)
inactive: ABL1 = 0 | AKT1 = 0 | ALK 0 | ARAF 0 | AURKA 0 | AURKB 0 | AURKC 0 | BLK 0 | BMX 0 | BRAF 0

Next records.

CC(C)=C/C=C1\O[C@@H]2CC(C)=CC(=O)[C@@H]2[C@]1(C)O [Bisabolangelone] (10 µM)
inactive: ABL1 = 0 | AKT1 = 0 | ALK 0 | ARAF 0 | AURKA 0 | AURKB 0 | AURKC 0 | BLK 0 | BMX 0 | BRAF 0

Cn1cc(C2=C(c3c4n(c5ccccc35)CCC(CN)C4)C(=O)NC2=O)c2ccccc21 (stereo not given) [Bisindolylmaleimide X (hydrochloride)] (2.5 µM)
inactive: ABL1 = 0 | AKT1 = 0 | ALK 0 | ARAF 0 | AURKA 0 | AURKB 0 | AURKC 0 | BLK 0 | BMX 0 | BRAF 0

CNC(=O)c1nnc(NC(=O)C2CC2)cc1Nc1cccc(-c2ncn(C)n2)c1OC [Deucravacitinib] (10 µM)
inactive: ABL1 = 0 | AKT1 = 0 | ALK 0 | ARAF 0 | AURKA 0 | AURKB 0 | AURKC 0 | BLK 0 | BMX 0 | BRAF 0

O=C(Nc1nccs1)C(c1cc(F)ccc1O)N1Cc2ccccc2C1=O (stereo not given) (10 µM)
inactive: ABL1 = 0 | AKT1 = 0 | ALK 0 | ARAF 0 | AURKA 0 | AURKB 0 | AURKC 0 | BMX 0 | BRAF 0
active: BLK 1

Nc1nc2c(ncn2COCCO)c(=O)[nH]1 [Acyclovir] (10 µM)
inactive: ABL1 = 0 | AKT1 = 0 | ALK 0 | ARAF 0 | AURKA 0 | AURKB 0 | AURKC 0 | BLK 0 | BMX 0 | BRAF 0

O=S(=O)(c1cccc2c(Cl)cccc12)N1CCCNCC1 (10 µM)
inactive: ABL1 = 0 | AKT1 = 0 | ALK 0 | ARAF 0 | AURKA 0 | AURKB 0 | AURKC 0 | BLK 0 | BMX 0 | BRAF 0

COc1ncc2cc(C(=O)Nc3cc(C(=O)NCc4cccc(Cl)c4)ccc3Cl)c(=O)[nH]c2n1 (2.5 µM)
inactive: ABL1 = 0 | AKT1 = 0 | ALK 0 | ARAF 0 | AURKA 0 | AURKB 0 | AURKC 0 | BLK 0 | BMX 0 | BRAF 0

Cc1ncc(F)c(Nc2n[nH]c3c2CN(C(=O)N2C[C@@H](C)N(CC4CCOCC4)C[C@@H]2C)C3(C)C)n1 (10 µM)
inactive: ABL1 = 0 | AKT1 = 0 | ALK 0 | ARAF 0 | AURKA 0 | AURKB 0 | AURKC 0 | BLK 0 | BMX 0 | BRAF 0

CC(C)n1cnnc1-c1cccc(NC(=O)c2cc3ccc(F)cc3[nH]2)n1 (2.5 µM)
inactive: ABL1 = 0 | AKT1 = 0 | ALK 0 | ARAF 0 | AURKA 0 | AURKB 0 | AURKC 0 | BLK 0 | BMX 0 | BRAF 0

Cn1cc(-c2ccc3nnc(Sc4ccc5nn(C)cc5c4)n3n2)cn1 [c-Met inhibitor 1] (10 µM)
inactive: ABL1 = 0 | AKT1 = 0 | ALK 0 | ARAF 0 | AURKA 0 | AURKB 0 | AURKC 0 | BLK 0 | BMX 0 | BRAF 0

COc1ccc(C(=O)c2cn(C(C)C)c3ncnc(N)c23)cc1NC(=O)Nc1ccc(Cl)cc1Cl (10 µM)
active: BRAF 1
inactive: ABL1 = 0 | AKT1 = 0 | ALK 0 | ARAF 0 | AURKA 0 | AURKB 0 | AURKC 0 | BLK 0 | BMX 0

Cc1cc(F)c(Nc2ncnc3cc(OCc4ccccc4)ccc23)cc1O (10 µM)
inactive: ABL1 = 0 | AKT1 = 0 | ALK 0 | ARAF 0 | AURKA 0 | AURKB 0 | AURKC 0 | BLK 0 | BMX 0 | BRAF 0

O=c1cc(N2CCOCC2)oc2c1ccc1ccccc12 (2 µM)
inactive: ABL1 = 0 | AKT1 = 0 | ALK 0 | ARAF 0 | AURKA 0 | AURKB 0 | AURKC 0 | BLK 0 | BMX 0 | BRAF 0

COc1ccc(C2CC(c3ccc(Cl)cc3)=NN2c2nc(-c3ccncc3)cs2)cc1 (stereo not given) [mTOR inhibitor-8] (10 µM)
inactive: ABL1 = 0 | AKT1 = 0 | ALK 0 | ARAF 0 | AURKA 0 | AURKB 0 | AURKC 0 | BLK 0 | BMX 0 | BRAF 0

Cc1cc(Nc2ncc(Cl)c(Nc3ccccc3S(=O)(=O)C(C)C)n2)c(OC(C)C)cc1C1CCN(CC(=O)NCCNc2cccc3c2C(=O)N(C2CCC(=O)NC2=O)C3=O)CC1 (stereo not given) (10 µM)
inactive: ABL1 = 0 | AKT1 = 0 | ALK 0 | ARAF 0 | AURKA 0 | AURKB 0 | AURKC 0 | BLK 0 | BMX 0 | BRAF 0

Cc1cc([N+](=O)[O-])c(NS(=O)(=O)c2cccc(C(=O)O)c2)cc1-c1cccnc1 [Alofanib] (10 µM)
inactive: ABL1 = 0 | AKT1 = 0 | ALK 0 | ARAF 0 | AURKA 0 | AURKB 0 | AURKC 0 | BLK 0 | BMX 0 | BRAF 0

COc1cc2nccc(Oc3ccc(NC(=O)Nc4ccc(F)cc4F)c(F)c3)c2cc1OC (10 µM)
inactive: ABL1 = 0 | AKT1 = 0 | ALK 0 | ARAF 0 | AURKA 0 | AURKB 0 | AURKC 0 | BLK 0 | BMX 0 | BRAF 0

O=C1c2cccc(O)c2C(=O)c2c(O)cccc21 [Danthron] (10 µM)
inactive: ABL1 = 0 | AKT1 = 0 | ALK 0 | ARAF 0 | AURKA 0 | AURKB 0 | AURKC 0 | BLK 0 | BMX 0 | BRAF 0

Cc1cccc(-c2[nH]c(C(C)(C)C)nc2-c2ccc3c(c2)OCO3)n1 (2.5 µM)
inactive: ABL1 = 0 | AKT1 = 0 | ALK 0 | ARAF 0 | AURKA 0 | AURKB 0 | AURKC 0 | BLK 0 | BMX 0 | BRAF 0

C=CCN(/C=C1/C(=O)O[C@H](COC)[C@@]2(C)C1=C(O)C(=O)C1=C2[C@H](OC(C)=O)C[C@]2(C)C(=O)CC[C@@H]12)CC=C [Sonolisib] (2.5 µM)
inactive: ABL1 = 0 | AKT1 = 0 | ALK 0 | ARAF 0 | AURKA 0 | AURKB 0 | AURKC 0 | BLK 0 | BMX 0 | BRAF 0

C[C@@H]1O[C@@H](O[C@H]2[C@H](OC(=O)[C@]34CCC(C)(C)C[C@H]3C3=CC[C@@H]5[C@@]6(C)C[C@H](O)[C@H](O[C@@H]7O[C@H](CO)[C@@H](O)[C@H](O)[C@H]7O)C(CO)(CO)[C@@H]6CC[C@@]5(C)[C@]3(C)C[C@H]4O)OC[C@H](O)[C@@H]2O)[C@H](O)[C@H](O)[C@H]1O[C@@H]1OC[C@@H](O)[C@H](O[C@@H]2OC[C@](O)(CO)[C@H]2O)[C@H]1O [Platycodin D] (10 µM)
inactive: ABL1 = 0 | AKT1 = 0 | ALK 0 | ARAF 0 | AURKA 0 | AURKB 0 | AURKC 0 | BLK 0 | BMX 0 | BRAF 0

COc1cc(-c2cc(-c3cccc(O)c3)cnc2N)cc(OC)c1OC (2.5 µM)
inactive: ABL1 = 0 | AKT1 = 0 | ALK 0 | ARAF 0 | AURKA 0 | AURKB 0 | AURKC 0 | BLK 0 | BMX 0 | BRAF 0

Cc1ccc(Nc2c(C(N)=O)cnc3cc(-c4ccncc4)ccc23)cc1C [cFMS Receptor Inhibitor II] (10 µM)
inactive: ABL1 = 0 | AKT1 = 0 | ALK 0 | ARAF 0 | AURKA 0 | AURKB 0 | AURKC 0 | BLK 0 | BMX 0 | BRAF 0

CCc1nc(C(N)=O)c(Nc2ccc(N3CCC(N4CCN(C)CC4)CC3)c(OC)c2)nc1NC1CCC(OC)CC1 (stereo not given) [EML4-ALK kinase inhibitor 1] (2.5 µM)
inactive: ABL1 = 0 | AKT1 = 0 | ALK 0 | ARAF 0 | AURKA 0 | AURKB 0 | AURKC 0 | BLK 0 | BMX 0 | BRAF 0
